Record: PubChem BioAssay AID1259424 (University of Nebraska Medical Center, 2018)
Screen: 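Rank knockdowns across the genome by resemblance to the KSR1 depletion profile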 (primary screen). Cells: human HCT116 colon cancer cells. Knock-down reagent: siRNA pool against human genes, 50 nM. Detection: 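Six signature mRNAs by branched-DNA multiplex assay, scaled to two housekeeping genes and non-targeting median, log2; matched to mean KSR1 knockdown profile by Pearson correlation and euclidean distance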. Scale: mean correlation with KSR1 profile: higher = expression change more like KSR1 knockdown; mean distance from KSR1 profile: higher = expression change less like KSR1 knockdown.
In all, the deposit lists about 14,000 reagents; shown is a part drawn at random. 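Higher correlation or smaller distance means closer resemblance to KSR1 loss; control wells, including KSR1 knockdowns, recur on many plates.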 Not all columns of the deposit are shown. Not given: the time to read-out.

ABCC4 — mean correlation with KSR1 profile: 0.663; mean distance from KSR1 profile: 0.637
EMP3 — mean correlation with KSR1 profile: 0.263; mean distance from KSR1 profile: 1.47
GIMAP2 — mean correlation with KSR1 profile: 0.399; mean distance from KSR1 profile: 1.33
IGSF9 — mean correlation with KSR1 profile: 0.754; mean distance from KSR1 profile: 1.88
ETNPPL — mean correlation with KSR1 profile: 0.00655; mean distance from KSR1 profile: 2.01
SYNDIG1 — mean correlation with KSR1 profile: -0.718; mean distance from KSR1 profile: 3.25
PRRC2C — mean correlation with KSR1 profile: 0.315; mean distance from KSR1 profile: 2.91
ZNF215 — mean correlation with KSR1 profile: -0.0914; mean distance from KSR1 profile: 1.3
SLC22A15 — mean correlation with KSR1 profile: -0.477; mean distance from KSR1 profile: 2.79
SLC6A1 — mean correlation with KSR1 profile: 0.0508; mean distance from KSR1 profile: 2.3

Sorted by “mean distance from KSR1 profile” (low to high): some entries from above
ABCC4 — mean correlation with KSR1 profile: 0.663; mean distance from KSR1 profile: 0.637
GIMAP2 — mean correlation with KSR1 profile: 0.399; mean distance from KSR1 profile: 1.33
EMP3 — mean correlation with KSR1 profile: 0.263; mean distance from KSR1 profile: 1.47
IGSF9 — mean correlation with KSR1 profile: 0.754; mean distance from KSR1 profile: 1.88

The list goes on.
MRPL9 — mean correlation with KSR1 profile: -0.618; mean distance from KSR1 profile: 1.69
KCNG1 — mean correlation with KSR1 profile: -0.171; mean distance from KSR1 profile: 1.56
GAS2L1 — mean correlation with KSR1 profile: 0.0458; mean distance from KSR1 profile: 1.31
HNRNPH3 — mean correlation with KSR1 profile: -0.0113; mean distance from KSR1 profile: 2.97
GALNT10 — mean correlation with KSR1 profile: -0.452; mean distance from KSR1 profile: 5.23
HADHA — mean correlation with KSR1 profile: 0.128; mean distance from KSR1 profile: 1.8
NPTX1 — mean correlation with KSR1 profile: -0.366; mean distance from KSR1 profile: 2
TARS2 — mean correlation with KSR1 profile: 0.381; mean distance from KSR1 profile: 1.32
CSF3R — mean correlation with KSR1 profile: 0.934; mean distance from KSR1 profile: 0.448
CBFA2T3 — mean correlation with KSR1 profile: -0.00764; mean distance from KSR1 profile: 1.87
STK32A — mean correlation with KSR1 profile: 0.982; mean distance from KSR1 profile: 0.48
RGS11 — mean correlation with KSR1 profile: 0.162; mean distance from KSR1 profile: 2.08
ARHGEF10L — mean correlation with KSR1 profile: -0.256; mean distance from KSR1 profile: 2.94
SLC25A20 — mean correlation with KSR1 profile: -0.362; mean distance from KSR1 profile: 1.94
TOP1MT — mean correlation with KSR1 profile: 0.186; mean distance from KSR1 profile: 2.46
DHFR — mean correlation with KSR1 profile: 0.346; mean distance from KSR1 profile: 4.23
G6PD — mean correlation with KSR1 profile: -0.0941; mean distance from KSR1 profile: 3.74
ADRB3 — mean correlation with KSR1 profile: -0.393; mean distance from KSR1 profile: 4.17
